Patent US10098967B2, “Self-assembly of therapeutic agent-peptide nanostructures” (Ohio State Innovation Foundation, priority 2012, dated 2018)
For some assays here: Not every detail of the peptide structures is certain; ends, links or a residue may be inferred. Some of these results come from one statement about several compounds together. Peptide text beside a SMILES is read from it. * marks the point of attachment. Succinyl(20-O-(20S)-CPT) = CC[C@@]1(OC(=O)CCC(=O)*)C(=O)OCc2c1cc1n(c2=O)Cc2cc3ccccc3nc2-1; Fmoc = O=C(OCC1c2ccccc2-c2ccccc21)*

Experiments:
[1] = Lactone stability in human serum (HS) by HPLC
[2] = Solubility in PBS and water; format: physicochemical
Description: Three CPT-tetrapeptide (KFKK (SEQ ID NO:6)) conjugates were prepared that have alternating hydrophobic and hydrophilic sequence similar to the dipeptide derivatives with one additional lysine bearing a charged free amine. Compound E, F, and G were soluble in both H2O and PBS but as hydrophobicity decreased by changing the N-termini from -Fmoc to —NH2, solubility in both solutions increased.

SMILES | time after which predominantly hydrolyzed [1] [h] | precipitation in PBS at 10 mM [2]
CC[C@@]1(O)C(=O)OCc2c1cc1n(c2=O)Cc2cc3ccccc3nc2-1 [CPT, Camptothecin, reference compound] | 1 to 3 | 
CC[C@@]1(OC(=O)CCC(=O)NCCCC[C@H](NC(=O)[C@H](CCCCN)NC(=O)[C@H](Cc2ccccc2)NC(=O)[C@H](CCCCN)NC(=O)OCC2c3ccccc3-c3ccccc32)C(N)=O)C(=O)OCc2c1cc1n(c2=O)Cc2cc3ccccc3nc2-1 [Compound E, Fmoc-KFKK(CPT)-NH2] (Fmoc-KFKK(Succinyl(20-O-(20S)-CPT))-NH2; N-terminus and C-terminus assumed) |  | partially precipitated after one hour
